Values from PubChem BioAssay AID1224828 (NIAID, 2016).

- Screen: 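Regulators linking TLR4 signalling to p65 nuclear translocation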 (primary screen)
- Cells: mouse RAW264.7 G9 macrophage reporter cells (GFP-p65, Tnf promoter-mCherry)
- Knock-down reagent: siRNA pool against mouse genes, 100 nM
- Timing: 2 days siRNA transfection, then 40 min LPS before fixation
- Treatment: LPS (Salmonella minnesota R595) at 10 ng/ml
- Read-out: 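Microscopy ratio of nuclear to perinuclear-ring GFP-p65 signal, scaled to the plate median; gene score is the average of two replicate robust z-scores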
- Scale: p65 translocation robust z-score: higher = more nuclear NF-kappaB p65 after LPS than the plate median; nuclear/cytoplasmic p65 ratio: higher = more nuclear NF-kappaB p65
- Rule for the call: 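Active if robust z is above 3.3 (negative regulators) or below -1.56, the Tlr4 control median (positive regulators); activity score 50 or more; control wells not called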
- Calls: active = hit (p65 shift raised or lowered); inactive = no clear change
The whole screen tested about 17,000 reagents; this is a random part of them. Over the whole deposit, 762 (4.5%) are marked active. 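Active calls include both raised and lowered p65 entry, mostly lowered; wells with fewer than 50 cells lack a z-score.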 Raw values vary from plate to plate and are shown uncorrected. A number with no mark means an inactive call.

| target gene | PubChem SID | p65 translocation robust z-score | nuclear/cytoplasmic p65 ratio, rep 1 | nuclear/cytoplasmic p65 ratio, rep 2 | low cell count flag |
| --- | --- | --- | --- | --- | --- |
| Msi1 | SID315467991 | -1.18 | 1.5 | 1.49 | enough cells to score |
| Rbck1 | SID315470326 | -0.4 | 1.55 | 1.56 | enough cells to score |
| Popdc3 | SID315475660 | 2.36 | 1.66 | 1.5 | enough cells to score |
| Disc1 | SID315479775 | 0 | 1.5 | 1.35 | enough cells to score |
| Or5w15 | SID315480289 | -1.94 (active) | 1.37 | 1.29 | enough cells to score |
| Cox8a | SID315466087 | 0.14 | 1.56 | 1.84 | enough cells to score |
| Ift88 | SID315469701 | – | 1.34 | 1.13 | fewer than 50 cells per well; well left out of scoring |
| Shisa4 | SID315475476 | 0.37 | 1.4 | 1.68 | enough cells to score |
| Tnfrsf1b | SID315469768 | -0.79 | 1.4 | 1.31 | enough cells to score |
| Fhl5 | SID315471814 | -0.07 | 1.38 | 1.41 | enough cells to score |
| Srsf7 | SID315478393 | 0.19 | 1.52 | 1.64 | enough cells to score |
| Rcsd1 | SID315478515 | 0.29 | 1.6 | 1.92 | enough cells to score |
| Fbxw8 | SID315478915 | 0.54 | 1.59 | 1.8 | enough cells to score |
| Plekhm1 | SID315481694 | 0.33 | 1.4 | 1.27 | enough cells to score |
| Larp7 | SID315470664 | 1.08 | 1.77 | 1.66 | enough cells to score |
| Agpat4 | SID315473477 | -0.2 | 1.58 | 1.65 | enough cells to score |
| Phox2b | SID315468607 | 0.36 | 1.59 | 1.41 | enough cells to score |
| Or4c125 | SID315480588 | -1.07 | 1.56 | 1.37 | enough cells to score |
| Baz1b | SID315470028 | 0.06 | 1.59 | 1.65 | enough cells to score |
| Smyd2 | SID315478527 | 0.6 | 1.61 | 1.66 | enough cells to score |
| Ss18 | SID315480819 | -0.99 | 1.42 | 1.39 | enough cells to score |
| Haus8 | SID315475321 | -0.39 | 1.28 | 1.41 | enough cells to score |
| Mcrip2 | SID315473471 | -0.76 | 1.31 | 1.44 | enough cells to score |
| Dot1l | SID315477530 | – | 1.35 | 1.27 | fewer than 50 cells per well; well left out of scoring |
